The target of this experiment is T1, WT Mdm30-Myc (S. cerevisiae) (UniProt Q05930).
T1 sequence: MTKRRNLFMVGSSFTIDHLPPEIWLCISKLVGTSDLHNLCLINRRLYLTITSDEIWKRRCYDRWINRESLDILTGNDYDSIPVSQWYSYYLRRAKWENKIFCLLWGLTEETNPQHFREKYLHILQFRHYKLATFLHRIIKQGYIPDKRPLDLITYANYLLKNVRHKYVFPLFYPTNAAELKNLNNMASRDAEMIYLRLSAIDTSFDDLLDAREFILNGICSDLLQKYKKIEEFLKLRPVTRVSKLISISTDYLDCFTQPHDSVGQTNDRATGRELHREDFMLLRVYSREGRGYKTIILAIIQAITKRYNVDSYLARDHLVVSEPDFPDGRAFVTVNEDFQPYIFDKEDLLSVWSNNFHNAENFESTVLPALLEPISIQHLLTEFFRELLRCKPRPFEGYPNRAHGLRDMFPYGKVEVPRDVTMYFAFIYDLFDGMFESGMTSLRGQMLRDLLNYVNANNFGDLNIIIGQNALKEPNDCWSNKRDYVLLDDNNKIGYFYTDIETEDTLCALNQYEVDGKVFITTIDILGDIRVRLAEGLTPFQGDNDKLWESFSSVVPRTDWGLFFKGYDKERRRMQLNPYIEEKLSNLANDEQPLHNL
Nature of the experiment: co-IP; lysates of ubp2Δ mdm30Δ yeast co-expressing Ubp2-HA and Mdm30-Myc (WT or F-box mutant); anti-Myc (9E10) or mock on protein G-Sepharose, 2 h at 4 °C; IP buffer 100 mM Tris pH 7.5, 100 mM NaCl, 0.6% Triton X-100, 10% glycerol; anti-HA immunoblot; also done in the presence or absence of Rup1. (Immunoblotting shows a protein as a band on a membrane.)

These are yes or no findings as the source states them, for the method shown. Binding seen in cells or lysates may run through a third protein. Sequences can lack the tags named with a protein.

B1: Ubp2 tagged with six HA C-terminal epitopes (Ubp2-HA) (enzyme, UniProt Q01476 1-1272)
chain: MPNEDNELQKAIENHHNQLLNQDKENADRNGSVIEDLPLYGTSINQQSTPGDVDDGKHLLYPDIATNLPLKTSDRLLDDILCDTIFLNSTDPKVMQKGLQSRGILKESMLSYSTFRSSIRPNCLGSLTDQVVFQTKSEYDSISCPKYNKIHVFQAVIFNPSLAEQQISTFDDIVKIPIYHLKVSVKVRQELERLKKHVGVTQFHSLDHLHEYDRVDLSTFDSSDPNLLDYGIYVSDDTNKLILIEIFKPEFNSPEEHESFTADAIKKRYNAMCVKNESLDKSETPSQVDCFYTLFKIFKGPLTRKSKAEPTKTIDSGNLALNTHLNPEWLTSKYGFQASSEIDEETNEIFTEYVPPDMVDYVNDLETRKIRESFVRKCLQLIFWGQLSTSLLAPNSPLKNTKSVKGMSSLQTSFSTLPWFHLLGESRARILLNSNEQTHSPLDAEPHFINLSVSHYYTDRDIIRNYESLSSLDPENIGLYFDALTYIANRKGAYQLIAYCGKQDIIGQEALENALLMFKINPKECNISELNEATLLSIYKYETSNKSQVTSNHLTNLKNALRLLAKYTKSDKLKFYVDHEPYRALSQAYDTLSIDESVDEDIIKTAYSVKINDSPGLKLDCDRALYTIAISKRSLDLFNFLTEECPQFSNYYGPEKLDYQEALKLLQVNENASDETILKIFKQKWFDENVYEPDQFLILRAALTKISIERNSTLITNFLLTGTIDPNSLPPENWPTGINNIGNTCYLNSLLQYYFSIAPLRRYVLEYQKTVENFNDHLSNSGHIRRIGGREISRGEVERSIQFIYQLRNLFYAMVHTRERCVTPSKELAYLAFAPSNVEVEFEVEGNKVVDQTGVLSDSKKETTDDAFTTKIKDTSLIDLEMEDGLNGDVGTDANRKKNESNDAEVSENEDTTGLTSPTRVAKISSDQLENALEMGRQQDVTECIGNVLFQIESGSEPIRYDEDNEQYDLVKQLFYGTTKQSIVPLSATNKVRTKVERFLSLLINIGDHPKDIYDAFDSYFKDEYLTMEEYGDVIRTVAVTTFPTILQVQIQRVYYDRERLMPFKSIEPLPFKEVIYMDRYADTENPLLLAKKKETEEMKQKLKVMKNRQRELLSRDDSGLTRKDAFLESIKLLESDTIKKTPLKIEAANDVIKTLRNNVQNIDNELMKLYNDINSLEEKISHQFDDFKEYGYSLFSVFIHRGEASYGHYWIYIKDRNRNGIWRKYNDETISEVQEEEVFNFNEGNTATPYFLVYVKQGQEGDIEPLKRILK
Turning to B1, the binding result is “no binding”.

Values taken from PMC5474747.
